{
  "source": "patent US8624027B2",
  "about": "“Combination therapy for treating cancer and diagnostic assays for use therein” (AbbVie Inc., priority 2005, dated 2014)",
  "experiment": "Pharmacokinetic evaluation in rat",
  "assay_type": "in vivo",
  "experimental": "The pharmacokinetic behavior of compounds of this disclosure was determined following a single 2 mg/kg intravenous or 5 mg/kg oral dose in male Sprague-Dawley derived rats (n=3 per group). The compounds were prepared as 2 mg/mL solution in a 10% DMSO in PEG-400 formulation for both oral and intravenous administration. The 1 mL/kg intravenous dose was administered as a slow bolus (about 1-2 minutes) in the jugular vein of a rat under light ether anesthetic. The oral dose was administered by gavage. Serial blood samples were obtained from a tail vein of each rat prior 0.1 (IV only), 0.25, 0.5, 1, 1.5, 2, 3, 4, 6, 8 and 24 hours after dosing. The heparinized samples were thoroughly mixed and placed in an ice bath. Plasma was separated by centrifugation and stored frozen prior to analysis.\nThe compounds of interest were separated from the plasma using protein precipitation with acetonitrile. A plasma (100-200 μL, sample or spiked standard) aliquot was combined with 50 μL of internal standard (structurally related analog prepared in acetonitrile) and 1 ml acetonitrile in a 96-well polypropylene deep well plate. The plates were vortexed for 30 seconds followed by centrifugation (3500 rpm×15 minutes, 4° C.). In an automated manner, the supernatant was transferred to a clean 96-well plate. The samples were evaporated to near dryness on a Micro-Vap™ under a stream of dry nitrogen over low heat (˜37° C.). The samples were reconstituted vortexing with 0.2 mL 5% DMSO in acetonitrile. A 0.1-0.2 ml aliquot of acetonitrile: 0.1% trifluoroacetic acid (20:80, by volume) was added to each well, followed by an additional 30 second vortexing. The plates were centrifuged (3500 rpm×15 minutes, 4° C.) prior to HPLC-MS/MS analysis. Samples were analyzed simultaneously with spiked plasma standards. All samples from each study were analyzed as a single batch on the LC-MS/MS.\nThe compounds of interest and the internal standard were separated from each other and co-extracted contaminants on a 50×3 mm Keystone Betasil CN 5 μm column with an acetonitrile: 0.1% trifluoroacetic acid mobile phase (50:50, by volume) at a flow rate of 0.7 ml/min. Analysis was performed on a Sciex API 300™ Biomolecular Mass Analyzer using a heated nebulizer interface. Peak areas of the title compounds and internal standards were determined using the Sciex MacQuan™ software. Calibration curves were derived from peak area ratio (parent drug/internal standard) of the spiked rat plasma standards using least squares linear regression of the ratio versus the theoretical concentration. The methods were generally linear over the range of the standard curve (correlation coefficients >0.99) with an estimated quantitation limit of 0.01 μg/mL. The plasma concentration data for each animal were submitted to multi-exponential curve fitting using WinNonlin. The area under the plasma concentration-time curve from 0 to t hours (time of the last measurable plasma concentration) after dosing (AUC0-t) was calculated using the linear trapezoidal rule for the plasma concentration-time profiles. The residual area extrapolated to infinity, determined as the final measured plasma concentration (Ct) divided by the terminal elimination rate constant (β), was added to AUC0-t to produce the total area under the curve (AUC0-∞). Ki values shown in the tables below were determined using Wang's equation (Wang Z X., An Exact Mathematical Expression For Describing Competitive Binding Of Two Different Ligands To A Protein Molecule. FEBS Lett. 1995; 360:111-4)).",
  "key": {"[1]": {"settings": "rat oral AUC / NCI-H146 EC50, Table 1"}},
  "data": [
    {"smiles": "CC(C)N(C)CC[C@H](CSc1ccccc1)Nc1ccc(S(=O)(=O)NC(=O)c2ccc(N3CCN(CC4=C(c5ccc(Cl)cc5)CC(C)(C)CC4)CC3)cc2)cc1S(=O)(=O)C(F)(F)F", "note": "[Example 14, N-(4-(4-((2-(4-chlorophenyl)-4,4-dimethylcyclohex-1-en-1-yl)methyl)piperazin-1-yl)benzoyl)-4-(((1R)-3-(isopropyl(methyl)amino)-1-((phenylsulfanyl)methyl)propyl)amino)-3-((trifluoromethyl)sulfonyl)benzenesulfonamide]", "values": [
      {"measurement": "PK/PD ratio AUC/EC50", "setting": "[1]", "result": 111}
    ]},
    {"smiles": "O=C(NS(=O)(=O)c1ccc(N[C@H](CCN2CCCOCC2)CSc2ccccc2)c(S(=O)(=O)C(F)(F)F)c1)c1ccc(N2CCN(CC3=C(c4ccc(Cl)cc4)CCCC3)CC2)cc1", "note": "[Example 15, N-(4-(4-((2-(4-chlorophenyl)cyclohex-1-en-1-yl)methyl)piperazin-1-yl)benzoyl)-4-(((1R)-3-(1,4-oxazepan-4-yl)-1-((phenylsulfanyl)methyl)propyl)amino)-3-((trifluoromethyl)sulfonyl)benzenesulfonamide]", "values": [
      {"measurement": "PK/PD ratio AUC/EC50", "setting": "[1]", "result": 126}
    ]},
    {"smiles": "O=C(NS(=O)(=O)c1ccc(N[C@H](CCN2CCCCCC2)CSc2ccccc2)c(S(=O)(=O)C(F)(F)F)c1)c1ccc(N2CCN(CC3=C(c4ccc(Cl)cc4)CCCC3)CC2)cc1", "note": "[Example 16, 4-(((1R)-3-(azepan-1-yl)-1-((phenylsulfanyl)methyl)propyl)amino)-N-(4-(4-((2-(4-chlorophenyl)-1-cyclohex-1-en-1-yl)methyl)piperazin-1-yl)benzoyl)-3-((trifluoromethyl)sulfonyl)benzenesulfonamide]", "values": [
      {"measurement": "PK/PD ratio AUC/EC50", "setting": "[1]", "result": 63}
    ]},
    {"smiles": "CN(C)CC[C@H](CSc1ccccc1)Nc1ccc(S(=O)(=O)NC(=O)c2ccc(N3CCN(CC4=C(c5ccc(Cl)cc5)CCCCC4)CC3)cc2)cc1S(=O)(=O)C(F)(F)F", "note": "[Example 17, N-(4-(4-((2-(4-chlorophenyl)cyclohept-1-en-1-yl)methyl)piperazin-1-yl)benzoyl)-4-(((1R)-3-(dimethylamino)-1-((phenylsulfanyl)methyl)propyl)amino)-3-((trifluoromethyl)sulfonyl)benzenesulfonamide]", "values": [
      {"measurement": "PK/PD ratio AUC/EC50", "setting": "[1]", "result": 31}
    ]},
    {"smiles": "CN(C)CC[C@H](CSc1ccccc1)Nc1ccc(S(=O)(=O)NC(=O)c2ccc(N3CCN(CC4=C(c5ccc(Cl)cc5)CCCC4)CC3)cc2)cc1S(=O)(=O)C(F)(F)Cl", "note": "[Example 18, 3-((chloro(difluoro)methyl)sulfonyl)-N-(4-(4-((2-(4-chlorophenyl)cyclohex-1-en-1-yl)methyl)piperazin-1-yl)benzoyl)-4-(((1R)-3-(dimethylamino)-1-((phenylsulfanyl)methyl)propyl)amino)benzenesulfonamide]", "values": [
      {"measurement": "PK/PD ratio AUC/EC50", "setting": "Table 3", "result": 39.5},
      {"measurement": "PK/PD ratio AUC/EC50", "setting": "[1]", "result": 40}
    ]},
    {"smiles": "CC1(C)CCC(c2ccc(Cl)cc2)=C(CN2CCN(c3ccc(C(=O)NS(=O)(=O)c4ccc(N[C@H](CCN5CCOCC5)CSc5ccccc5)c(S(=O)(=O)C(F)(F)Cl)c4)cc3)CC2)C1", "note": "[Example 19, 3-((chloro(difluoro)methyl)sulfonyl)-N-(4-(4-((2-(4-chlorophenyl)-5,5-dimethylcyclohex-1-en-1-yl)methyl)piperazin-1-yl)benzoyl)-4-(((1R)-3-(morpholin-4-yl)-1-((phenylsulfanyl)methyl)propyl)amino)benzenesulfonamide]", "values": [
      {"measurement": "PK/PD ratio AUC/EC50", "setting": "[1]", "result": 451}
    ]},
    {"smiles": "CN(C)CC[C@H](CSc1ccccc1)Nc1ccc(S(=O)(=O)NC(=O)c2ccc(N3CCN(CC4=C(c5ccc(Cl)cc5)CCC(C)(C)C4)CC3)cc2)cc1S(=O)(=O)C(F)(F)F", "note": "[Example 20, N-(4-(4-((2-(4-chlorophenyl)-5,5-dimethyl-1-cyclohex-1-en-1-yl)methyl)piperazin-1-yl)benzoyl)-4-(((1R)-3-(dimethylamino)-1-((phenylsulfanyl)methyl)propyl)amino)-3-((trifluoromethyl)sulfonyl)benzenesulfonamide]", "values": [
      {"measurement": "PK/PD ratio AUC/EC50", "setting": "[1]", "result": 112}
    ]},
    {"smiles": "O=C(NS(=O)(=O)c1ccc(N[C@H](CCN2CCOCC2)CSc2ccccc2)c(S(=O)(=O)C(F)(F)F)c1)c1ccc(N2CCN(CC3=C(c4ccc(Cl)cc4)CCOC3)CC2)cc1", "note": "[Example 21, N-(4-(4-((4-(4-chlorophenyl)-5,6-dihydro-2H-pyran-3-yl)methyl)piperazin-1-yl)benzoyl)-4-(((1R)-3-(morpholin-4-yl)-1-((phenylsulfanyl)methyl)propyl)amino)-3-((trifluoromethyl)sulfonyl)benzenesulfonamide]", "values": [
      {"measurement": "PK/PD ratio AUC/EC50", "setting": "[1]", "result": 28}
    ]},
    {"smiles": "CC(C)N(C)CC[C@H](CSc1ccccc1)Nc1ccc(S(=O)(=O)NC(=O)c2ccc(N3CCN(CC4=C(c5ccc(Cl)cc5)CC(C)(C)CC4)CC3)cc2)cc1S(=O)(=O)C(F)(F)Cl", "note": "[Example 22, 3-((chloro(difluoro)methyl)sulfonyl)-N-(4-(4-((2-(4-chlorophenyl)-4,4-dimethylcyclohex-1-en-1-yl)methyl)piperazin-1-yl)benzoyl)-4-(((1R)-3-(isopropyl(methyl)amino)-1-((phenylsulfanyl)methyl)propyl)amino)benzenesulfonamide]", "values": [
      {"measurement": "PK/PD ratio AUC/EC50", "setting": "[1]", "result": 105}
    ]},
    {"smiles": "CC(C)N(C)CC[C@H](CSc1ccccc1)Nc1ccc(S(=O)(=O)NC(=O)c2ccc(N3CCN(CC4=C(c5ccc(Cl)cc5)CCC(C)(C)C4)CC3)cc2)cc1S(=O)(=O)C(F)(F)Cl", "note": "[Example 23, 3-((chloro(difluoro)methyl)sulfonyl)-N-(4-(4-((2-(4-chlorophenyl)-5,5-dimethylcyclohex-1-en-1-yl)methyl)piperazin-1-yl)benzoyl)-4-(((1R)-3-(isopropyl(methyl)amino)-1-((phenylsulfanyl)methyl)propyl)amino)benzenesulfonamide]", "values": [
      {"measurement": "PK/PD ratio AUC/EC50", "setting": "[1]", "result": 67}
    ]},
    {"smiles": "CC1(C)CCC(CN2CCN(c3ccc(C(=O)NS(=O)(=O)c4ccc(N[C@H](CCN5CCOCC5)CSc5ccccc5)c(S(=O)(=O)C(F)(F)F)c4)cc3)CC2)=C(c2ccc(Cl)cc2)C1", "note": "[Example 24, N-(4-(4-((2-(4-chlorophenyl)-4,4-dimethylcyclohex-1-en-1-yl)methyl)piperazin-1-yl)benzoyl)-4-(((1R)-3-(morpholin-4-yl)-1-((phenylsulfanyl)methyl)propyl)amino)-3-((trifluoromethyl)sulfonyl)benzenesulfonamide]", "values": [
      {"measurement": "PK/PD ratio AUC/EC50", "setting": "[1]", "result": 181}
    ]},
    {"smiles": "CC1(C)CCC(CN2CCN(c3ccc(C(=O)NS(=O)(=O)c4ccc(N[C@H](CCN5C[C@@H]6C[C@H]5CO6)CSc5ccccc5)c(S(=O)(=O)C(F)(F)Cl)c4)cc3)CC2)=C(c2ccc(Cl)cc2)C1", "note": "[Example 25, 3-((chloro(difluoro)methyl)sulfonyl)-N-(4-(4-((2-(4-chlorophenyl)-4,4-dimethylcyclohex-1-en-1-yl)methyl)piperazin-1-yl)benzoyl)-4-(((1R)-3-((1S,4S)-2-oxa-5-azabicyclo[2.2.1]hept-5-yl)-1-((phenylsulfanyl)methyl)propyl)amino)benzenesulfonamide]", "values": [
      {"measurement": "PK/PD ratio AUC/EC50", "setting": "[1]", "result": 102}
    ]},
    {"smiles": "CN(C)CC[C@H](CSc1ccccc1)Nc1ccc(S(=O)(=O)NC(=O)c2ccc(N3CCN(CC4=C(c5ccc(Cl)cc5)CCCC4)CC3)cc2)cc1S(=O)(=O)C(F)(F)F", "note": "[Example 26, N-(4-(4-((2-(4-chlorophenyl)cyclohex-1-en-1-yl)methyl)piperazin-1-yl)benzoyl)-4-(((1R)-3-(dimethylamino)-1-((phenylsulfanyl)methyl)propyl)amino)-3-((trifluoromethyl)sulfonyl)benzenesulfonamide]", "values": [
      {"measurement": "PK/PD ratio AUC/EC50", "setting": "Table 3", "result": 33.0},
      {"measurement": "PK/PD ratio AUC/EC50", "setting": "[1]", "result": 33}
    ]},
    {"smiles": "O=C(NS(=O)(=O)c1ccc(N[C@H](CCN2CCCC2)CSc2ccccc2)c(S(=O)(=O)C(F)(F)F)c1)c1ccc(N2CCN(CC3=C(c4ccc(Cl)cc4)CCCC3)CC2)cc1", "note": "[Example 27, N-(4-(4-((2-(4-chlorophenyl)cyclohex-1-en-1-yl)methyl)piperazin-1-yl)benzoyl)-4-(((1R)-1-((phenylsulfanyl)methyl)-3-(pyrrolidin-1-yl)propyl)amino)-3-((trifluoromethyl)sulfonyl)benzenesulfonamide]", "values": [
      {"measurement": "PK/PD ratio AUC/EC50", "setting": "[1]", "result": 112}
    ]}
  ]
}
